Source: paper doi:10.1101/2021.02.22.432116 (bioRxiv, 2021)
No constants are given. Whether binding was seen depends on the method and setting. Some results given as binding are weak or reduced against the parent protein; the word gives no strength.

B1: UBQLN2 109-576 (domain or fragment, human, UniProt Q9UHD9 109-576, looked up)
chain: QGQSTQPSNAAGTNTTSASTPRSNSTPISTNSNPFGLGSLGGLAGLSSLGLSSTNFSELQSQMQQQLMASPEMMIQIMENPFVQSMLSNPDLMRQLIMANPQMQQLIQRNPEISHLLNNPDIMRQTLEIARNPAMMQEMMRNQDLALSNLESIPGGYNALRRMYTDIQEPMLNAAQEQFGGNPFASVGSSSSSGEGTQPSRTENRDPLPNPWAPPPATQSSATTSTTTSTGSGSGNSSSNATGNTVAAANYVASIFSTPGMQSLLQQITENPQLIQNMLSAPYMRSMMQSLSQNPDLAAQMMLNSPLFTANPQLQEQMRPQLPAFLQQMQNPDTLSAMSNPRAMQALMQIQQGLQTLATEAPGLIPSFTPGVGVGVLGTAIGPVGPVTPIGPIGPIVPFTPIGPIGPIGPTGPAAPPGSTGSGGPTGPTVSSAAPSETTSPTSESGPNQQFIQQMVQALAGANAPQLP
B2: UBQLN2 248-576 (domain or fragment, human, UniProt Q9UHD9 248-576, looked up)
chain: MRNQDLALSNLESIPGGYNALRRMYTDIQEPMLNAAQEQFGGNPFASVGSSSSSGEGTQPSRTENRDPLPNPWAPPPATQSSATTSTTTSTGSGSGNSSSNATGNTVAAANYVASIFSTPGMQSLLQQITENPQLIQNMLSAPYMRSMMQSLSQNPDLAAQMMLNSPLFTANPQLQEQMRPQLPAFLQQMQNPDTLSAMSNPRAMQALMQIQQGLQTLATEAPGLIPSFTPGVGVGVLGTAIGPVGPVTPIGPIGPIVPFTPIGPIGPIGPTGPAAPPGSTGSGGPTGPTVSSAAPSETTSPTSESGPNQQFIQQMVQALAGANAPQLP
B3: UBQLN2 UBL domain (UBQLN2 1-107) (domain or fragment, human, UniProt Q9UHD9 1-107, looked up)
chain: MAENGESSGPPRPSRGPAAAQGSAAAPAEPKIIKVTVKTPKEKEEFAVPENSSVQQFKEAISKRFKSQTDQLVLIFAGKILKDQDTLIQHGIHDGLTVHLVIKSQNR
B4: UBQLN2 UBA domain (UBQLN2 571-624) (domain or fragment, human, UniProt Q9UHD9 571-624, looked up)
chain: NAPQLPNPEVRFQQQLEQLNAMGFLNREANLQALIATGGDINAAIERLLGSQPS

Experiments:
[1] = molecular target: B4; assay: NMR titration
UBQLN2 UBA L619A (human) = UBQLN2 UBA L619A (human) (UniProt Q9UHD9); assay: NMR titration
[2] = molecular target: B3; assay: NMR, concentration dependence of chemical shifts
[3] = molecular target: B4; assay: NMR, concentration dependence of chemical shifts

Molecule	binding [1]	further results
UBQLN2 178-576 (from UniProt Q9UHD9 178-576) (domain or fragment)	binds weakly	–
UBQLN2 379-576 (from UniProt Q9UHD9 379-576) (domain or fragment)	binds weakly	–
B1	binds weakly	binding (UBQLN2 UBA L619A (human)): binds weakly
B2	binds weakly	–
B3	–	binding [2]: no binding (tested: 400 μM)
B4	–	binding [3]: no binding (tested: 400 μM)
